{"sequences": {"note": "Sequences of proteins named here, by UniProt entry; tags and fusion partners are left off. A change or cut given only in a name is not applied to a line headed by its entry.", "UniProt Q9BZ67": "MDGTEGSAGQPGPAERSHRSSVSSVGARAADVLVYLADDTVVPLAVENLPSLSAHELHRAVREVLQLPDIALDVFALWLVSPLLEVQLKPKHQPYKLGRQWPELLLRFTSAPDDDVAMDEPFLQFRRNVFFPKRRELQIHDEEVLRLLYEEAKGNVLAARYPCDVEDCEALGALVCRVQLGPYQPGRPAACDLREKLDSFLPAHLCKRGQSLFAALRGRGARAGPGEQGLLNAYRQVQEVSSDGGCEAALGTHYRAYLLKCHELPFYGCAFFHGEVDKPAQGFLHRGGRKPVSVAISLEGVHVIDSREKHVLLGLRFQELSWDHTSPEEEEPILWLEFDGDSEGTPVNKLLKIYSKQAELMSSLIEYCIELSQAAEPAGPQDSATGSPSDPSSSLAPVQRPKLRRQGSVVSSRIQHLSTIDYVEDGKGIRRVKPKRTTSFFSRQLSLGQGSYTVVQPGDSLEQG", "UniProt Q9BYJ9": "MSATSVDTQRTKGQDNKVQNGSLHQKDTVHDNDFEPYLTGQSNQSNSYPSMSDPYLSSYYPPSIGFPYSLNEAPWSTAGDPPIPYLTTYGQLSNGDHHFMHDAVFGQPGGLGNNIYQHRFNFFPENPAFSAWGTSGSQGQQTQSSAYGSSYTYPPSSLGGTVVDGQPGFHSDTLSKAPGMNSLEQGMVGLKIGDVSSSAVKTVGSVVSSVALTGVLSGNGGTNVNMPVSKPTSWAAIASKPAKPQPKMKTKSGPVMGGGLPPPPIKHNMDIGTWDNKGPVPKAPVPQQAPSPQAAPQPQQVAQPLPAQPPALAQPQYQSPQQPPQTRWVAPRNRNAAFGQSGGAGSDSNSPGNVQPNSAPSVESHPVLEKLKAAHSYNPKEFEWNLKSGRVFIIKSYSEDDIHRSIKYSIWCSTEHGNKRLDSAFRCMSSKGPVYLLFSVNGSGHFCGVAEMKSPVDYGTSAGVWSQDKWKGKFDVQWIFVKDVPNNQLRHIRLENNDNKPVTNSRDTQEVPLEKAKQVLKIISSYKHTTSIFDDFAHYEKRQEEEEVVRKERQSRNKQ", "UniProt Q9BY44": "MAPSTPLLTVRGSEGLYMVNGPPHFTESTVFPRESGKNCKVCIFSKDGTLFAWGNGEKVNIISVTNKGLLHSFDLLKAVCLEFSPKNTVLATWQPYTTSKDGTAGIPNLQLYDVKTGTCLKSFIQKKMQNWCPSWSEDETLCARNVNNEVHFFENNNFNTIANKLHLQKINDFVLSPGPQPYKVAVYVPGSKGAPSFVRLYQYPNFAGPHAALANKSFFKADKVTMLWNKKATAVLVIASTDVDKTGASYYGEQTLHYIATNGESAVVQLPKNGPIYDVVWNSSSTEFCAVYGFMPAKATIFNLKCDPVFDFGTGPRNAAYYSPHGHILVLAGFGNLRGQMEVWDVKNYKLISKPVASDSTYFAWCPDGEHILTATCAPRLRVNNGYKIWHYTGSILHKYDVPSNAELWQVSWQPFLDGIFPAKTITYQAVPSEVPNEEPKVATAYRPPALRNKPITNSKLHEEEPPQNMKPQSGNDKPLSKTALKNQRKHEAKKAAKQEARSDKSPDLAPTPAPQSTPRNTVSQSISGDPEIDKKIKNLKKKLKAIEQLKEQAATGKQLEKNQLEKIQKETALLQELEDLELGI", "UniProt Q9H1Z4": "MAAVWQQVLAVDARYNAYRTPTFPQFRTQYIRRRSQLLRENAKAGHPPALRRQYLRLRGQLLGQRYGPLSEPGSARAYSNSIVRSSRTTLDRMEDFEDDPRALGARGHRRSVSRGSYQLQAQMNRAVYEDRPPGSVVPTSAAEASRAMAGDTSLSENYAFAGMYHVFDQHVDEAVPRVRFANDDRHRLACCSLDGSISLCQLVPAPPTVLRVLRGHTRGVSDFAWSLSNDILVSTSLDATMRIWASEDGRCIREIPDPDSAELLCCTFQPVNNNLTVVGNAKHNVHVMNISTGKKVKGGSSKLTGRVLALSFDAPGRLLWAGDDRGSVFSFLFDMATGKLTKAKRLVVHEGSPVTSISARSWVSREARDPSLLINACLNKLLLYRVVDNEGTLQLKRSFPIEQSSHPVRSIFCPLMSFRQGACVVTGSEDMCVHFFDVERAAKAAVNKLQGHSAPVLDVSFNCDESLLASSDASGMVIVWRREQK", "UniProt Q9BWF3": "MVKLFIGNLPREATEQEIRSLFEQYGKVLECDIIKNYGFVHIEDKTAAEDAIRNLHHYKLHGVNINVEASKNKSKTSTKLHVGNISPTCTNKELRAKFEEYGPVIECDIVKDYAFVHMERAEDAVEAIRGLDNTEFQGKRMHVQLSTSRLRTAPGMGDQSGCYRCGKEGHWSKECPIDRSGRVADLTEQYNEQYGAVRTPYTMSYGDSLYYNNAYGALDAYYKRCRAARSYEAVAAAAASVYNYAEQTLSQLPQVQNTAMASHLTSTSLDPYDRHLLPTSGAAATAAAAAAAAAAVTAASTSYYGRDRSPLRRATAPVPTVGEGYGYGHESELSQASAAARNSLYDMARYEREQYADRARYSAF", "UniProt Q9H0R6": "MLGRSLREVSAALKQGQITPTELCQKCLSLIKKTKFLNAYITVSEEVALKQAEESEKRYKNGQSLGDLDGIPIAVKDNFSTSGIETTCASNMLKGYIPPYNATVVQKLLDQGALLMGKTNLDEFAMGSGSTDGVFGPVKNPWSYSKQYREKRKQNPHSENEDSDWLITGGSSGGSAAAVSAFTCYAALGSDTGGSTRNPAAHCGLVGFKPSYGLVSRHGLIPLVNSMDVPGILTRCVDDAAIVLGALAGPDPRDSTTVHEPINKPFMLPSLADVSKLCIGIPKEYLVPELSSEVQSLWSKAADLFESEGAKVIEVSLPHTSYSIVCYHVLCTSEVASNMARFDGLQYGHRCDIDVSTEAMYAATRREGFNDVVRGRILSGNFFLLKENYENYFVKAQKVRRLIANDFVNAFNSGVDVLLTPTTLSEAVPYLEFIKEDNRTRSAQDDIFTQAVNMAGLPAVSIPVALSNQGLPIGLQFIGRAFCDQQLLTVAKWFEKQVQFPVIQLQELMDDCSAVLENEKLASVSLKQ", "UniProt Q9BZF1": "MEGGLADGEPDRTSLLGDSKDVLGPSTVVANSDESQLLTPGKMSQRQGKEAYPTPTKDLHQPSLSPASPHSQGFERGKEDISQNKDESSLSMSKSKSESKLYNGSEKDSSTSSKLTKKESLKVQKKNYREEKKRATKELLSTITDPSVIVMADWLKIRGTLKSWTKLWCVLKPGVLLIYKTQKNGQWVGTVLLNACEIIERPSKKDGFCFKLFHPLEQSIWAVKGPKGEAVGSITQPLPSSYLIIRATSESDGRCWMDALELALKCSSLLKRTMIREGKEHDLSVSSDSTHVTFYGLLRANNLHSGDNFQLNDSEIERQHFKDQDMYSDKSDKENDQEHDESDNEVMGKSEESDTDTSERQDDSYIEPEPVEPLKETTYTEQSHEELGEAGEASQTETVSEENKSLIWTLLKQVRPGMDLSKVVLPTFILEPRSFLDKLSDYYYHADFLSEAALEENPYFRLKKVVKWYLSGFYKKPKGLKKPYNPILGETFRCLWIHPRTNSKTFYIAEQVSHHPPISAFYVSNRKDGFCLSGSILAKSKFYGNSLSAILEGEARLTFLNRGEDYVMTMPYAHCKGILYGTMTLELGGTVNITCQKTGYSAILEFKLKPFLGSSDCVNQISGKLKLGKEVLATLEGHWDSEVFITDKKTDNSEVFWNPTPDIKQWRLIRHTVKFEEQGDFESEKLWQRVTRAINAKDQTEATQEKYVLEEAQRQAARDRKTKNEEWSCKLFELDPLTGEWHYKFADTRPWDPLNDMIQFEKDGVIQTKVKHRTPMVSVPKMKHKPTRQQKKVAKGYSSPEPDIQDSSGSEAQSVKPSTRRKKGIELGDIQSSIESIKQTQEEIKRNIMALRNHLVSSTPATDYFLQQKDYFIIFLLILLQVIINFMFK", "UniProt Q9BYX4": "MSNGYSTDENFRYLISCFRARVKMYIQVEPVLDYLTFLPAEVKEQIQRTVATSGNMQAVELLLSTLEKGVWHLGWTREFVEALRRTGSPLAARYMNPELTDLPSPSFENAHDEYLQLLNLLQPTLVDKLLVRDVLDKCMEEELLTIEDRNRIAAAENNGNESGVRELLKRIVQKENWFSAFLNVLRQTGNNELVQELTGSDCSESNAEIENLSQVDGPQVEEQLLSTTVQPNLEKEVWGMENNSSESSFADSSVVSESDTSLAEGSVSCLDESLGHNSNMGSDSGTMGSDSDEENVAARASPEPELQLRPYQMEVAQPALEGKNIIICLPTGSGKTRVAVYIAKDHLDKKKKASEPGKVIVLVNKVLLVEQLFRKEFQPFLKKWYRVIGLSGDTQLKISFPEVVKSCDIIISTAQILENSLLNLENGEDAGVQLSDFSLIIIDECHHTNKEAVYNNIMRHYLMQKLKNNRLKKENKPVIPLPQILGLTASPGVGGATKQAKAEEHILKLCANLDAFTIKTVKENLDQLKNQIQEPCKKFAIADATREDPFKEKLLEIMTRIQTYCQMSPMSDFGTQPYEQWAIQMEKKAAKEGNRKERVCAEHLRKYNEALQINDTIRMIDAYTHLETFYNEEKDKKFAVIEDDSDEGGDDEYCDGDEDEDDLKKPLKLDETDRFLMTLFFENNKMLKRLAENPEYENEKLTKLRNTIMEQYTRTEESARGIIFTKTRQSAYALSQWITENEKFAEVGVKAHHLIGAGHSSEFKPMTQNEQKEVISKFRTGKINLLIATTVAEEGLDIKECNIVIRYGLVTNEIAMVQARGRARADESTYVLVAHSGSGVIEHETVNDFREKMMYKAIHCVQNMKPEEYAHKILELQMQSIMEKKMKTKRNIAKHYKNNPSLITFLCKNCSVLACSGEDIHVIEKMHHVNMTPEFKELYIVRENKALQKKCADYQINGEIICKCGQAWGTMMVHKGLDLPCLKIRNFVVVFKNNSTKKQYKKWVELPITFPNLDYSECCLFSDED"}, "source": "the supplement of paper PMC12819154", "about": "“High-throughput peptide-centric local stability assay extends protein–ligand identification to membrane proteins, tissues and bacteria” (Nature Structural & Molecular Biology, 2025)", "note": "The other results are listed elsewhere or left out. Most values lie at the level of the controls, where differences are scatter."}
{"compound": "CN[C@@H]1C[C@H]2O[C@@](C)([C@@H]1OC)n1c3ccccc3c3c4c(c5c6ccccc6n2c5c31)C(=O)NC4 [staurosporine]", "experiment": "log2 fold change of tryptic peptide abundance, ligand vs vehicle (limited proteolysis) (log2 ratio); higher = more trypsin-susceptible (destabilized)", "conditions": "ligand concentration: 20 uM; sample: K562 cleared lysate; digestion: 4 min, 22 C (HT-PELSA RT4min, Orbitrap Astral)"}
{"target": "FRMD8 (peptide sequence: GQSLFAALR, peptide start residue: 209) (UniProt Q9BZ67)", "log2 fold change": 0.303}
{"target": "YTHDF1 (peptide sequence: PTSWAAIASKPAKPQPK, peptide start residue: 231) (UniProt Q9BYJ9)", "log2 fold change": -1.14}
{"target": "EIF2A (peptide sequence: SPDLAPTPAPQSTPR, peptide start residue: 506) (UniProt Q9BY44)", "log2 fold change": -0.316}
{"target": "WDR13 (peptide sequence: MEDFEDDPR, peptide start residue: 93) (UniProt Q9H1Z4)", "log2 fold change": 0.105}
{"target": "RBM4 (peptide sequence: TAPGMGDQSGCYRCGK, peptide start residue: 152) (UniProt Q9BWF3)", "log2 fold change": -0.642}
{"target": "MRPL9 (peptide sequence: ENLELILTQSVENVGVR, peptide start residue: 92) (UniProt Q9BYD2)", "log2 fold change": 0.142}
{"target": "QRSL1 (peptide sequence: FDGLQYGHR, peptide start residue: 342) (UniProt Q9H0R6)", "log2 fold change": 0.384}
{"target": "OSBPL8 (peptide sequence: GKEDISQNKDESSLSMSK, peptide start residue: 77) (UniProt Q9BZF1)", "log2 fold change": -0.394}
{"target": "C20orf27 (peptide sequence: VMDRHHGTPMLLDGVK, peptide start residue: 140) (UniProt Q9GZN8)", "log2 fold change": 0.689}
{"target": "IFIH1 (peptide sequence: VLLVEQLFR, peptide start residue: 366) (UniProt Q9BYX4)", "log2 fold change": -0.0465}
